This note sets out measurements from article PMC13189624, “MORC2 mediates transcriptional regulation through liquid-liquid phase separation” (eLife, 2026).

For assay [1], the target named is T1, MORC2 IDR-binding domain (IBD, residues 1004-1032) (human) (UniProt Q9Y6X9).
T1 sequence: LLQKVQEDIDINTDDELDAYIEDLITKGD
Put plainly: NMR titration; 15N-HSQC; IDR or IDR subregion titrated into 15N-labelled IBD or CC3; 50 mM Tris-HCl pH 8.0, 100 mM NaCl, 7% D2O; 298 K; protein 0.5 to 1.0 mM; both purified.

Assay [2] deals with T2, MORC2 CC3 domain (residues 901-1003) (human) (UniProt Q9Y6X9).
T2 sequence: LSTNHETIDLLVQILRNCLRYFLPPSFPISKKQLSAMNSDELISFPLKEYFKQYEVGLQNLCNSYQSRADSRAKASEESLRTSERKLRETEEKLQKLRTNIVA
The description is as above.

In assay [3] the target is MORC2 1-900 (full-length MORC2 lacking CC3-IBD) (human) (UniProt Q9Y6X9). Put plainly: SEC-MALS; size-exclusion chromatography with static light scattering (miniDawn); fragments at 70 μM; Superdex 200 increase or Superose 6 increase; 50 mM Tris-HCl pH 8.0, 150 mM NaCl, 1 mM EDTA, 1 mM DTT; both purified. On the technique in general: Size exclusion chromatography separates by hydrodynamic size, large species first.

Results are given in words; binding and its absence hold for the method and conditions named. Some entries that bind do so weakly or less than the wild type.

B1: MORC2 IDR (residues 593-735) (domain or fragment, UniProt Q9Y6X9 593-735)
chain: LPLEVTTRPSTEEPVRRPQRPRSPPLPAVIRNAPSRPPSLPTPRPASQPRKAPVISSTPKLPALAAREEASTSRLLQPPEAPRKPANTLVKTASRPAPLVQQLSPSLLPNSKSPREVPSPKVIKTPVVKKTESPIKLSPATPS
Turning to B1, the binding result in assay [1] is “binds weakly”; in assay [2], “no binding”.

B2: MORC2 IDRa (residues 593-643) (domain or fragment, UniProt Q9Y6X9 593-643)
chain: LPLEVTTRPSTEEPVRRPQRPRSPPLPAVIRNAPSRPPSLPTPRPASQPRK
Regarding B2, the binding result in assay [1] is recorded as “binds weakly”.

B3: MORC2 1-900 (full-length MORC2 lacking CC3-IBD) (domain or fragment, UniProt Q9Y6X9 1-900)
chain: MAFTNYSSLNRAQLTFEYLHTNSTTHEFLFGALAELVDNARDADATRIDIYAERREDLRGGFMLCFLDDGAGMDPSDAASVIQFGKSAKRTPESTQIGQYGNGLKSGSMRIGKDFILFTKKEDTMTCLFLSRTFHEEEGIDEVIVPLPTWNARTREPVTDNVEKFAIETELIYKYSPFRTEEEVMTQFMKIPGDSGTLVIIFNLKLMDNGEPELDIISNPRDIQMAETSPEGTKPERRSFRAYAAVLYIDPRMRIFIHGHKVQTKRLSCCLYKPRMYKYTSSRFKTRAEQEVKKAEHVARIAEEKAREAESKARTLEVRLGGDLTRDSRVMLRQVQNRAITLRREADVKKRIKEAKQRALKEPKELNFVFGVNIEHRDLDGMFIYNCSRLIKMYEKVGPQLEGGMACGGVVGVVDVPYLVLEPTHNKQDFADAKEYRHLLRAMGEHLAQYWKDIAIAQRGIIKFWDEFGYLSANWNQPPSSELRYKRRRAMEIPTTIQCDLCLKWRTLPFQLSSVEKDYPDTWVCSMNPDPEQDRCEASEQKQKVPLGTFRKDMKTQEEKQKQLTEKIRQQQEKLEALQKTTPIRSQADLKKLPLEVTTRPSTEEPVRRPQRPRSPPLPAVIRNAPSRPPSLPTPRPASQPRKAPVISSTPKLPALAAREEASTSRLLQPPEAPRKPANTLVKTASRPAPLVQQLSPSLLPNSKSPREVPSPKVIKTPVVKKTESPIKLSPATPSRKRSVAVSDEEEVEEEAERRKERCKRGRFVVKEEKKDSNELSDSAGEEDSADLKRAQKDKGLHVEVRVNREWYTGRVTAVEVGKHVVRWKVKFDYVPTDTTPRDRWVEKGSEDVRLMKPPSPEHQSLDTQQEGGEEEVGPVAQQAIAVAEPSTSECLRIEPDTTA
In the case of B3, the binding result in assay [3] is reported as “no binding (tested: 70 μM)”.
